Assay results from the supplement of paper PMC3334620.
The full ranking holds about 33,000 sequences; the median of “E-score (-0.5 to 0.5)” is about -0.0059, and the highest 2% start at about 0.26. The list shows a part of the results.

biological target: T1, Cin5 (UniProt P40917); test: PBM E-score (8-mer binding enrichment) (E-score (-0.5 to 0.5)); higher = stronger / more preferred TF binding; conditions: protein concentration: 100 nM; construct: GST-full length
T1 sequence: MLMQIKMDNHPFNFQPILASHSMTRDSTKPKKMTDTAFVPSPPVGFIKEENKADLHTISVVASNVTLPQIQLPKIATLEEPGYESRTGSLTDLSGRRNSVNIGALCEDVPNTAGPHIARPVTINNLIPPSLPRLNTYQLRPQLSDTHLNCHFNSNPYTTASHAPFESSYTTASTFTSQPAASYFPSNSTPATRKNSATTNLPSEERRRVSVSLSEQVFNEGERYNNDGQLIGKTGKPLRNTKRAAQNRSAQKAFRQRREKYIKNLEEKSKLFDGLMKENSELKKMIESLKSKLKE
Method: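 Universal 'all 10-mer' protein binding microarrays (Agilent AMADID 015681) probed with GST-tagged S. cerevisiae TFs (full-length or DBD) made by in vitro transcription/translation (PURExpress), about 100-200 nM. Bound TF was detected with fluorescent anti-GST. Each ungapped 8-mer (which stands for itself and its reverse complement) is scored by the PBM enrichment score (E-score), a modified Wilcoxon-Mann-Whitney statistic from -0.5 to +0.5, computed with the Universal PBM Analysis Suite. Scale: above 0.35 generally sequence-specific binding.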

Sequence	PBM E-score
CGGAACCA	0.246
ATTGATGA	0.119
GACTAGCC	-0.25
TTAGTAAA	0.269
ACCGCGAG	-0.122
ACGATGGA	0.00402
AGGGGATG	-0.0811
AAGTAGGC	-0.0336
AGATGCCG	-0.049
ACCCACAT	0.0905
CCGAATAA	0.166
CCACAAAG	0.113
GTACGCTA	-0.00613
ACAGAAGA	0.0865
ACGGTGTG	-0.126
ACATTTTG	0.159
TCCTCAGA	-0.165
CGCGCAAG	0.0818
CAACAACC	0.0257
CGAGCCAC	-0.252
CTAAGTTA	0.0404
AAGATCAT	0.0925
CCTCTGAC	-0.0742
CTGTGACA	-0.0283
ATAGACGC	0.122

Sequence	PBM E-score
CCGCTGCA	-0.0851
ATCAGGAA	0.155
AACAGAGC	-0.0803
CTGCGAAG	-0.268
AACATCTG	-0.114
GGCACCCC	-0.246
AGCCGAGA	-0.0808
CTGTCTTA	0.00232
AGACACGG	-0.0099
CGACTAGC	-0.0834
ATGCCCCA	-0.0481
CAAGGAGG	0.00169
TCGGGAGA	-0.122
AGAATCCG	-0.0125
AATCTTCT	0.0501
TAGTAGGA	-0.03
ACTAACAA	0.147
TCCAACAA	-0.107
AAGGACGA	-0.127
GACGTATC	-0.218
CAATCTCG	0.0199
CGACGCCG	-0.0966
AAAAGAGG	-0.0673
ATGCTCCA	0.0289
GAATTCGC	0.0864

Sequence	PBM E-score
GCTTTGAC	0.0402
ACCGGGCC	-0.201
ACCGACAC	-0.0656
AGGTATAC	0.0433
AGATGACT	-0.0493
AATATTCG	0.19
AGGCCTCG	-0.253
GCAAACGC	0.0409
GACGTGCA	-0.00619
CCCTACCC	-0.183
TCTCAGAA	-0.164
TGGGAAAA	-0.0319
CAATGCGC	0.145
AAGCATTA	0.127
AATATTGA	0.172
CTACGGGC	-0.321
TCAAGTGA	-0.00901
ACTTCGCA	-0.0303
ACACCGTA	-0.074
CCTCATCC	-0.257
CAGGTAGC	-0.171
TAATTGTA	0.207
AGAACCTC	-0.242
CTGGGGAA	-0.253
ATCATCAC	0.0889

51 successive entries from above:
Sequence	PBM E-score
CCTCTGAC	-0.0742
CTGTGACA	-0.0283
ATAGACGC	0.122
CCGCTGCA	-0.0851
ATCAGGAA	0.155
AACAGAGC	-0.0803
CTGCGAAG	-0.268
AACATCTG	-0.114
GGCACCCC	-0.246
AGCCGAGA	-0.0808
CTGTCTTA	0.00232
AGACACGG	-0.0099
CGACTAGC	-0.0834
ATGCCCCA	-0.0481
CAAGGAGG	0.00169
TCGGGAGA	-0.122
AGAATCCG	-0.0125
AATCTTCT	0.0501
TAGTAGGA	-0.03
ACTAACAA	0.147
TCCAACAA	-0.107
AAGGACGA	-0.127
GACGTATC	-0.218
CAATCTCG	0.0199
CGACGCCG	-0.0966
AAAAGAGG	-0.0673
ATGCTCCA	0.0289
GAATTCGC	0.0864
GCTTTGAC	0.0402
ACCGGGCC	-0.201
ACCGACAC	-0.0656
AGGTATAC	0.0433
AGATGACT	-0.0493
AATATTCG	0.19
AGGCCTCG	-0.253
GCAAACGC	0.0409
GACGTGCA	-0.00619
CCCTACCC	-0.183
TCTCAGAA	-0.164
TGGGAAAA	-0.0319
CAATGCGC	0.145
AAGCATTA	0.127
AATATTGA	0.172
CTACGGGC	-0.321
TCAAGTGA	-0.00901
ACTTCGCA	-0.0303
ACACCGTA	-0.074
CCTCATCC	-0.257
CAGGTAGC	-0.171
TAATTGTA	0.207
AGAACCTC	-0.242

Later entries

Sequence	PBM E-score
CCGTAGCG	-0.251
ACTTTGTG	0.0798
GTTACATA	0.266
CGCCACGA	-0.177
ACCAAATA	0.183
ACGCGGGA	0.0706
GCCTGCAC	-0.247
GTTCGGTA	0.00084
TGGCCGAA	0.125
CTCTCATA	0.144
CGTCTACA	-0.266
AACGGATG	-0.0257
CGATGCTA	0.0659
CATGACAC	0.0954
CCAACATA	0.247
CAAGTCTG	-0.291
CGTGCGCA	-0.0833
CAGGGTGA	-0.173
CCCTAAGC	-0.145
AGTCGCTC	-0.175
CAGCATTC	0.0863
ATCTGAAC	-0.00257
ACTTCTGG	-0.129
GCCATCAA	0.0184
CGTCTTCC	-0.093

Sequence	PBM E-score
TAACTTGA	0.0688
CCTACGCA	-0.218
AGCCTACT	-0.14
ATCGTCCC	0.128
AACCTCGC	-0.0377
CCCTCCAG	-0.18
GACCGAGA	0.0263
GTTGCCGA	-0.0858
AAGCGTCG	-0.0645
AGGCAGCA	0.124
CGTGCCAG	-0.313
AAGGTGAT	0.00149
CCGACGAC	0.0356
AATATAAT	0.177
CCTTAGAC	-0.155
ACCACAAA	0.103
CTCCATTA	-0.0341
CAGCAAAC	0.113
CCCTACTA	-0.0774
GATATGTA	0.189
TTAGCGAA	0.022
CATTGAAG	-0.139
CGGCTCGC	0.0606
ACTTTTAT	0.0105
AATAAGAT	0.161

Sequence	PBM E-score
TAGCGTGA	0.0415
TGGGTACA	-0.0384
GGGTAATA	0.122
ATCATTTG	0.156
CGATACGA	-0.172
GAAGTAGA	0.0964
ACAAGCAT	0.0402
ATGCTGAC	0.0871
CGATGCTC	-0.0947
TCACTGCA	0.142
TAAACGGA	0.154
AGCCACAG	-0.212
CCCCTACC	-0.0814
ACAAAAAG	0.103
CAATTCCA	0.0576
CGTTATGC	0.0541
CTTACTGA	0.176
CCCGATAG	-0.0593
ATCTACAC	0.108
CGGCCTAC	-0.0333
ACTTTGTA	-0.0203
GTGCACAA	-0.145
ATTGTCTG	0.133
ATGGTCGG	-0.0755
AGTACCGC	-0.0393

Sequence	PBM E-score
CAGAAAGC	0.0825
AAGTCCGT	-0.187
ACGTCGAA	-0.0427
GGTTTAAA	0.0618
CAATATAG	0.225
AGGCATAA	-0.0173
CTGCACTA	0.178
ACTAGGAC	-0.0324
AACTCTGA	0.182
AGATCTTG	-0.019
AACCAGAA	0.084
GAAAGTGA	0.0444
CTGCTAGC	-0.29
CTGAATTA	0.15
AAATTACT	0.227
AGCGCAAT	0.0704
CCGACCAC	-0.00291
TCACAGCA	0.0686
GAATTAGC	-0.0107
AACACACA	0.0624
TGCGCAAA	-0.0242
GAGATCAC	-0.0171
